Measurements published in PMC11524583, “Neurons enhance blood–brain barrier function via upregulating claudin-5 and VE-cadherin expression due to glial cell line-derived neurotrophic factor secretion” (eLife, 2024).
Marks after values point to notes of the source that are not given here.

Tests used:
in vitro [1] = details: human
in vitro [2] = details: human; remark: listed apart in the source
[3] = in situ brain perfusion in rodents; published permeability multiplied by VSA 150 cm^2/g; ref Summerfield et al., 2007; cited from earlier work
[4] = system: triple co-culture BBB model (hCMEC/D3, U251 and SH-SY5Y cells); details: human
[5] = system: hCMEC/D3 mono-culture BBB model; details: human
[6] = unbound fraction in brain; ref Di et al., 2011; cited from earlier work

**Q.** With COc1cc2c(cc1OC)C(=O)C(CC1CCN(Cc3ccccc3)CC1)C2 (centres unmarked) [Donepezil] as the compound, how does the Papp A→B (in vitro [1]; Papp Mean) read?
**A.** Its Papp A→B is 14.5 ×10⁻⁶ cm/s.

**Q.** And the Papp A→B (in vitro [1]; Papp, Triple)?
**A.** The Papp A→B was 14.5 ± 0.84 ×10⁻⁶ cm/s.

**Q.** What about the Papp A→B (in vitro [2]; Papp (individual replicate)) of the same compound?
**A.** The Papp A→B was 22.6 ×10⁻⁶ cm/s.

**Q.** What about the Papp A→B (in vitro [2]; Papp Mean) of the same compound?
**A.** Its Papp A→B is 20.9 ×10⁻⁶ cm/s.

**Q.** What about the Papp A→B (in vitro [2]; Papp, Mono) of the same compound?
**A.** The Papp A→B was 20.9 ± 0.75 ×10⁻⁶ cm/s.

**Q.** And the PSObs [3]?
**A.** Its PSObs is 1581.30^† μl/min/g.

**Q.** What about the PS [4] of the same compound?
**A.** The PS was 1860.43 µL/min/g.

**Q.** And the “PSPre, Triple” value [4]?
**A.** Its value is 1860.43 µL/min/g.

**Q.** What about the PS [5] of the same compound?
**A.** Its PS is 2688.43 µL/min/g.

**Q.** And the “PSPre, Mono” value [5]?
**A.** The value was 2688.43 µL/min/g.

**Q.** And the “fu, brain” value [6]?
**A.** Its value is 0.07^††.
